Data as given in PubChem BioAssay AID1259424 (University of Nebraska Medical Center, 2018)
This is a random part of about 14,000 reagents tested. 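Higher correlation or smaller distance means closer resemblance to KSR1 loss; control wells, including KSR1 knockdowns, recur on many plates.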 Not all columns of the deposit are shown. Not stated in the record: the time to read-out.

Assay: 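Rank knockdowns across the genome by resemblance to the KSR1 depletion profile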 (primary screen)
Cell system: human HCT116 colon cancer cells
Reagent: siRNA pool against human genes, 50 nM
Detection: 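Six signature mRNAs by branched-DNA multiplex assay, scaled to two housekeeping genes and non-targeting median, log2; matched to mean KSR1 knockdown profile by Pearson correlation and euclidean distance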
Direction: mean correlation with KSR1 profile: higher = expression change more like KSR1 knockdown

gene knocked down	mean correlation with KSR1 profile
RNF125	-0.615
SSTR5	0.506
ZNF594	0.595
TPO	-0.158
ZMYND11	0.413
H2AC11	0.225
TNR	-0.356
RIT1	-0.0902
USH2A	0.0779
SH3GL2	0.884
RPS6KA6	-0.12
NDUFA13	-0.213
COMMD4	-0.149
FBXO3	-0.488
ELP4	-0.446
DDR1	-0.199
ZNF514	0.447
RTL9	-0.332
MLPH	-0.665
TSG101	-0.649
OR1F2P	-0.404
TNFSF4	0.0807
PTP4A1	0.772
TEX13A	-0.437
ZNF304	-0.492
PIWIL2	0.102
NINJ2	0.0983
PTP4A3	-0.855
RORA	-0.114
ITPRID2	-0.468
GALNT11	-0.195
FER	0.876
TDRD7	-0.167
GRAPL-AS1	0.156

3 of these entries, reformatted.
gene knocked down | mean correlation with KSR1 profile
TNR | -0.356
RIT1 | -0.0902
USH2A | 0.0779
